According to patent publication US20170028070:
For at least one entry, the source does not settle the construct or the ends of the probe.

Key:
[1] = biological target: HER2 extracellular domain (UniProt P04626); assay: binding assay; settings: 5'-H2N-(CH2)6; CITED; method not stated; single-stranded DNA
thrombin = assay: binding assay; settings: 5'-H2N-(CH2)6; CITED reported in the art; purified native protein; single-stranded DNA

Row | Sequence | Kd [1] [nM] | Kd (thrombin) [nM]
1 | AACCGCCCAAATCCCTAAGAGTCTGCACTTGTCATTTTGTATATGTATTTGGTTTTTGGCTCTCACAGACACACTACACACGCACA [anti-HER2 aptamer] | 315 | –
2 | AGTCCGTGGTAGGGCAGGTTGGGGTGACT [thrombin 29-mer aptamer] | – | 3.5
